No constants are given. Whether binding was seen depends on the method and setting. Some results given as binding are weak or reduced against the parent protein; the word gives no strength. Blank lines part the entries; values can stand above or below the molecule they belong to.
Legend:
Sec13 (S. cerevisiae) = biological target: T1, Sec13 (S. cerevisiae) (UniProt Q04491); assay: selective ribosome profiling (SeRP); RNase I monosomes pelleted through sucrose, Twin-StrepII bait pulled down on Streptactin sepharose, ribosome footprints of the IP against the total translatome; cycloheximide
T1 sequence: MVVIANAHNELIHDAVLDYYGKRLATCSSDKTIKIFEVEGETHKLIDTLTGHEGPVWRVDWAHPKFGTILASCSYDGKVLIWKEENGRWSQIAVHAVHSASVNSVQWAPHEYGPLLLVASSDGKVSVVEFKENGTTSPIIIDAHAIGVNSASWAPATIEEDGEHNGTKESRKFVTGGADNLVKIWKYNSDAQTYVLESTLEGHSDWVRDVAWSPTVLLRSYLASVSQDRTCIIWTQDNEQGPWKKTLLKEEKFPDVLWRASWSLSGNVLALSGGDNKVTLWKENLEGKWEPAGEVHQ

Amino acid sequences for entries named in this document (tags omitted).
UniProt P07149: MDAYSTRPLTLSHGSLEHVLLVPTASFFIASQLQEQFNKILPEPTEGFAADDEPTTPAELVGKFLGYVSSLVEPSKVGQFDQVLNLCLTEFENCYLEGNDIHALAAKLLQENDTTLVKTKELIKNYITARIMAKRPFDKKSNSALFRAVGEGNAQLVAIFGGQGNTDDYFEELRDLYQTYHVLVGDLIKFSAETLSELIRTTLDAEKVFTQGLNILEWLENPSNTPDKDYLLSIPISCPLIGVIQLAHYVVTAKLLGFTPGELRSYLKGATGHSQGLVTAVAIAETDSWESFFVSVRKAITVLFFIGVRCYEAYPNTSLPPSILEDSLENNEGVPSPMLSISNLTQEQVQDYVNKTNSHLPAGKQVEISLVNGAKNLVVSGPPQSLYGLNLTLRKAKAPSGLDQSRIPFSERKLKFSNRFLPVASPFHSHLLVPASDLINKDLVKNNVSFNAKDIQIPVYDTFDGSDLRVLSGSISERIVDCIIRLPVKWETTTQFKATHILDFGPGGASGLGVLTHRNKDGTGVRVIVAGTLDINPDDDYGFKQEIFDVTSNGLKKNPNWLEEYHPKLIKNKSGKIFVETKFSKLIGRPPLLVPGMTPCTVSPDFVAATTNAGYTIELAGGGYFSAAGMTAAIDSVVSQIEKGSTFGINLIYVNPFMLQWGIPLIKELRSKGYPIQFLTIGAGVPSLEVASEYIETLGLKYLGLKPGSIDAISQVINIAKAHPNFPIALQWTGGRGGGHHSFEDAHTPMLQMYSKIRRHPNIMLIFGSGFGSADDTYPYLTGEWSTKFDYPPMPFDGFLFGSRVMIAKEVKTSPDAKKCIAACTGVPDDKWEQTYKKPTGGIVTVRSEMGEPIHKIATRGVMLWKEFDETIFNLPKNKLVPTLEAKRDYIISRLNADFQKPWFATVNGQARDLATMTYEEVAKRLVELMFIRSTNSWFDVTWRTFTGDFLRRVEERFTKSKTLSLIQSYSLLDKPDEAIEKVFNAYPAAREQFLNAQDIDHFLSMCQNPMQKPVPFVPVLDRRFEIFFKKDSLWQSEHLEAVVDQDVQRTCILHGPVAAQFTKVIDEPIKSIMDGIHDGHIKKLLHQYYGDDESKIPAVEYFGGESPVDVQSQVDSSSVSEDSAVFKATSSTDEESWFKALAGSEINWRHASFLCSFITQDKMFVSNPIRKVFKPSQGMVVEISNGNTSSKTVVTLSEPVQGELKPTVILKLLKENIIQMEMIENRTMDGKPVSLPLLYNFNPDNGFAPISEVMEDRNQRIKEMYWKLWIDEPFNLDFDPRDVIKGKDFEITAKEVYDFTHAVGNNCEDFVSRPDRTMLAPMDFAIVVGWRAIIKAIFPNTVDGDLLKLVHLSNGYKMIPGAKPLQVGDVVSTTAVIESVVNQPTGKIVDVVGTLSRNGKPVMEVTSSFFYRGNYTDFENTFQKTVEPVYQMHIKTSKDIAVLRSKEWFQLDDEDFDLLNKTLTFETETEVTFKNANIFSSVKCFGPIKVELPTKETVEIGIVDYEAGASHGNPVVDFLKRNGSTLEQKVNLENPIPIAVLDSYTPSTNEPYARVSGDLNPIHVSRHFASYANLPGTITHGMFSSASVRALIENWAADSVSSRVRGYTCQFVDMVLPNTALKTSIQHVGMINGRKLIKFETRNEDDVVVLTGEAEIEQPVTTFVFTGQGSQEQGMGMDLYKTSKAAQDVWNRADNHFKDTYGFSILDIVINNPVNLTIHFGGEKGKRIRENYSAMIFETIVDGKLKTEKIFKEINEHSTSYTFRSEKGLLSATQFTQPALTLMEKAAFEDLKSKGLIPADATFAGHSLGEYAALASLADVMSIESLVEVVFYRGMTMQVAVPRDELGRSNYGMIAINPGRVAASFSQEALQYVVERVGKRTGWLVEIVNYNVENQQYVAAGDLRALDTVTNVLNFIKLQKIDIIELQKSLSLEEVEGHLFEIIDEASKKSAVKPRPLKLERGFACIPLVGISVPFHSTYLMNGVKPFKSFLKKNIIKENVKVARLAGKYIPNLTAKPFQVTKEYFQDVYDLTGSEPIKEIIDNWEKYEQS
UniProt P19097: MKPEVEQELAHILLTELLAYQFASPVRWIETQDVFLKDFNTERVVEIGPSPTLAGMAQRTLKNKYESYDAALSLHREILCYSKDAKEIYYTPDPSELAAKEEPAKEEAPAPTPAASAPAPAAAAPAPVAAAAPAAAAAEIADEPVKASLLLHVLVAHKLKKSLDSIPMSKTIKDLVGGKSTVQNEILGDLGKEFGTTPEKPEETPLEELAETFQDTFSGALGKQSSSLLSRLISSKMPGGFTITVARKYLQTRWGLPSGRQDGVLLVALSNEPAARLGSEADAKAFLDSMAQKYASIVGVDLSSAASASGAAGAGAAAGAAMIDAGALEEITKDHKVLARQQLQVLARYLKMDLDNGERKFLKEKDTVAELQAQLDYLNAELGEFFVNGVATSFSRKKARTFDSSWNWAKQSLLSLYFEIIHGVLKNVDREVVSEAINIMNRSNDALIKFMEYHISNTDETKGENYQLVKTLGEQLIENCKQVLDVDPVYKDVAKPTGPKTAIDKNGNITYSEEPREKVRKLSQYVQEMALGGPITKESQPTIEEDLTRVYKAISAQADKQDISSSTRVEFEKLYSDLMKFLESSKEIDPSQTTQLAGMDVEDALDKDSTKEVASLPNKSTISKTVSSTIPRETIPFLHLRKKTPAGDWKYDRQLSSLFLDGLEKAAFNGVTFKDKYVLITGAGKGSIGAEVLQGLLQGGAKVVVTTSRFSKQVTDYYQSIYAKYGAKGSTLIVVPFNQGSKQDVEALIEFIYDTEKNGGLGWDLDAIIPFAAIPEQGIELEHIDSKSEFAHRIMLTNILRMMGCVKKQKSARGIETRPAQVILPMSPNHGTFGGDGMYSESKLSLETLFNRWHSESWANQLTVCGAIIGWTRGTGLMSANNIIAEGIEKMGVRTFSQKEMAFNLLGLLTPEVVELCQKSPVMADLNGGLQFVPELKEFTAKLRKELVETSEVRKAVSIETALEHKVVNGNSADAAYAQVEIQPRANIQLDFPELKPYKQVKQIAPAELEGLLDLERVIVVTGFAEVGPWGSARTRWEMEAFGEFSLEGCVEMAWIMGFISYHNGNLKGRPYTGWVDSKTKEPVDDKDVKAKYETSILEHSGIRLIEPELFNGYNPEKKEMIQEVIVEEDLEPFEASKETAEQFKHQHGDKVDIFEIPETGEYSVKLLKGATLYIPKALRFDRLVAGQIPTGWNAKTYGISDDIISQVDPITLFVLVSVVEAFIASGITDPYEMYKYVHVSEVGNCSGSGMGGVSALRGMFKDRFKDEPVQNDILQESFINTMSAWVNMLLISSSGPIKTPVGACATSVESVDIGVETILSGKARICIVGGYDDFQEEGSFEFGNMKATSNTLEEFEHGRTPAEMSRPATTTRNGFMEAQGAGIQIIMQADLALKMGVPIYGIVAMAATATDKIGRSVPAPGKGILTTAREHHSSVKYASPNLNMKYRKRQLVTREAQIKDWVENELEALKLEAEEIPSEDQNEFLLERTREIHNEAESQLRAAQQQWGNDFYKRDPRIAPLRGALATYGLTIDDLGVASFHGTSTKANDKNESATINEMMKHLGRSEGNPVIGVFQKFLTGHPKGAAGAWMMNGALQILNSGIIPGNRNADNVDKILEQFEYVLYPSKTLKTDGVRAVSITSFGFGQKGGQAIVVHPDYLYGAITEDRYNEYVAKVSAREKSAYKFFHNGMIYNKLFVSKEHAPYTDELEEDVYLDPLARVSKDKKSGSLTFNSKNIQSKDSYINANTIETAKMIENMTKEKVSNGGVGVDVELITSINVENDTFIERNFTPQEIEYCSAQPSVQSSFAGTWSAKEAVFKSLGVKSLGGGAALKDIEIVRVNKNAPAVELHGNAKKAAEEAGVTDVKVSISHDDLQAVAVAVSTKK
UniProt P38181: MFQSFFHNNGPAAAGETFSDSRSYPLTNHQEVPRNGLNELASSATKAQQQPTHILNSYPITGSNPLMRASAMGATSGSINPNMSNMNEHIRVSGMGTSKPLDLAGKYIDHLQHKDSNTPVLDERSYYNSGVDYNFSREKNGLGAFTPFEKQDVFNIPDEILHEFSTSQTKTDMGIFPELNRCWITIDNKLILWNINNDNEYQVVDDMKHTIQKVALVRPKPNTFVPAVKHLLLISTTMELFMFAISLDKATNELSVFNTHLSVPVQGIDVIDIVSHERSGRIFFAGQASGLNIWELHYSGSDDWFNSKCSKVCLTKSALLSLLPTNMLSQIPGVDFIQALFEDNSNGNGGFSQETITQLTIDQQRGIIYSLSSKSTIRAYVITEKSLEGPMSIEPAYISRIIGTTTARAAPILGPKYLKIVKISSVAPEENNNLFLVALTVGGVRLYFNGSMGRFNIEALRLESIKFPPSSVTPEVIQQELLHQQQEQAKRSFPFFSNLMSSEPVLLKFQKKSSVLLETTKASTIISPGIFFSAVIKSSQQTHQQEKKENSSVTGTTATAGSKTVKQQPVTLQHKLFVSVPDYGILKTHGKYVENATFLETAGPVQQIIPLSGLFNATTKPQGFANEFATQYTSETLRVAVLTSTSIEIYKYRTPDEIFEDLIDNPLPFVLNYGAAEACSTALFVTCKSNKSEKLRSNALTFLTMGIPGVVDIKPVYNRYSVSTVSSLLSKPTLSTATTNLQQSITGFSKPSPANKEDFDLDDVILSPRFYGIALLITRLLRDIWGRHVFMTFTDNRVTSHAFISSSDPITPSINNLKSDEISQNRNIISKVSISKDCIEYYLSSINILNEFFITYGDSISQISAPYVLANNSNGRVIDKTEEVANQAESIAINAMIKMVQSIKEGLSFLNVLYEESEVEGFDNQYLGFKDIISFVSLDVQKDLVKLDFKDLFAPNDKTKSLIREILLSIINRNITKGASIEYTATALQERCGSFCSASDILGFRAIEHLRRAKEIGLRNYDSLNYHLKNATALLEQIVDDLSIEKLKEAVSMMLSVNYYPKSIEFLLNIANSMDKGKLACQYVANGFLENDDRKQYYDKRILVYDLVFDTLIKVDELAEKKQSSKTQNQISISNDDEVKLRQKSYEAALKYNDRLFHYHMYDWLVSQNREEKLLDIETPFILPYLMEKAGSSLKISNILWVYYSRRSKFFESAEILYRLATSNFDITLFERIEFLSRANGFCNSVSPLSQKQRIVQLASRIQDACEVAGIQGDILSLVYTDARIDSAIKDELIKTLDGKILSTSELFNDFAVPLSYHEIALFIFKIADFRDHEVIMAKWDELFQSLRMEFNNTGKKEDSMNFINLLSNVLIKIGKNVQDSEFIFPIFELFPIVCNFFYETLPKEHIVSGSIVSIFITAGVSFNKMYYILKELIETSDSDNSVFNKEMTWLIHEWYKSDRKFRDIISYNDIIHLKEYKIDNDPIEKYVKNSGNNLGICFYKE
UniProt P40368: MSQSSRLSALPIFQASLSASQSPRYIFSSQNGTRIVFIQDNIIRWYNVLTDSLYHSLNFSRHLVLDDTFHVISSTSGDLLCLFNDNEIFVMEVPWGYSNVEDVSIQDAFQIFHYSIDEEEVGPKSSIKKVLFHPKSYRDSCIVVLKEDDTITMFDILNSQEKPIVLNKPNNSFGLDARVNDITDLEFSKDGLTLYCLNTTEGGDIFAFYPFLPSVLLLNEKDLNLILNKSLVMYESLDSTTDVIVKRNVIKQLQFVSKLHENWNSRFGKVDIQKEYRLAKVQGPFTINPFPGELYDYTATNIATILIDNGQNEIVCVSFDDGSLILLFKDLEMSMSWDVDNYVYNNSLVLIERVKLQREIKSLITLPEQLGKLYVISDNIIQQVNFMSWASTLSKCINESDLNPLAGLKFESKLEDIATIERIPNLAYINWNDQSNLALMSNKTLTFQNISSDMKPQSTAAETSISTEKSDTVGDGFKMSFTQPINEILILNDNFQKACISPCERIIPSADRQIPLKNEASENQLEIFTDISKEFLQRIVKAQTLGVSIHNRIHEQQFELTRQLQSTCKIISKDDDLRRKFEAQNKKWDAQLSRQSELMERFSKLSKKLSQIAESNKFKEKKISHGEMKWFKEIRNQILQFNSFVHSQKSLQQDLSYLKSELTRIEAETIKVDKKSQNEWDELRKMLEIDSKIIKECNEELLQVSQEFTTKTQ

[1] = biological target: fatty acid synthase subunit Fas1 (S. cerevisiae) (UniProt P07149); assay: as above
[2] = biological target: fatty acid synthase subunit Fas1 (S. cerevisiae) (UniProt P07149); assay: RIP-qPCR (affinity purification of the bait, qPCR of the co-enriched mRNA of the nascent partner); Twin-StrepII bait from yeast lysate on Streptactin resin, 4 °C, lysis in 500 mM KCl, washes in 140 mM KCl; cycloheximide against puromycin; co-translational if mean signal with cycloheximide >=1.5 and significantly lower with puromycin; also Nsp1-StrepII in the Nup57 alpha-beta deletion strain
Fas2 (S. cerevisiae) = Fas2 (S. cerevisiae) (UniProt P19097); assay: condition: only to the nascent chain (co-translational engagement); binding of the finished proteins not tested; RIP-qPCR (affinity purification of the bait, qPCR of the co-enriched mRNA of the nascent partner); Twin-StrepII bait from yeast lysate on Streptactin resin, 4 °C, lysis in 500 mM KCl, washes in 140 mM KCl; cycloheximide against puromycin; co-translational if mean signal with cycloheximide >=1.5 and significantly lower with puromycin; also Nsp1-StrepII in the Nup57 alpha-beta deletion strain
Gle2 (S. cerevisiae) = biological target: T2, Gle2 (S. cerevisiae) (UniProt P40066); assay: RIP-qPCR (affinity purification of the bait, qPCR of the co-enriched mRNA of the nascent partner); Twin-StrepII bait from yeast lysate on Streptactin resin, 4 °C, lysis in 500 mM KCl, washes in 140 mM KCl; cycloheximide against puromycin; co-translational if mean signal with cycloheximide >=1.5 and significantly lower with puromycin; also Nsp1-StrepII in the Nup57 alpha-beta deletion strain
T2 sequence: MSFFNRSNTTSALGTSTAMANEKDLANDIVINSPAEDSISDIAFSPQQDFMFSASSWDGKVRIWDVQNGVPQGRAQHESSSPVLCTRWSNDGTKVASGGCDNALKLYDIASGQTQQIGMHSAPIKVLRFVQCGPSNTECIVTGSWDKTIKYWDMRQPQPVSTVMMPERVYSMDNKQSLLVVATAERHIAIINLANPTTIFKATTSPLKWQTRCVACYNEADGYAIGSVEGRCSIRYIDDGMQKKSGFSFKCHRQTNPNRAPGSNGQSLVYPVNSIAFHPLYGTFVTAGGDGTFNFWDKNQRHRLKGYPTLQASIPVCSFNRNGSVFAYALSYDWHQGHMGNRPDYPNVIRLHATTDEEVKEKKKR

Nup53 (S. cerevisiae) = biological target: T3, Nup53 (S. cerevisiae) (UniProt Q03790); assay: as above
T3 sequence: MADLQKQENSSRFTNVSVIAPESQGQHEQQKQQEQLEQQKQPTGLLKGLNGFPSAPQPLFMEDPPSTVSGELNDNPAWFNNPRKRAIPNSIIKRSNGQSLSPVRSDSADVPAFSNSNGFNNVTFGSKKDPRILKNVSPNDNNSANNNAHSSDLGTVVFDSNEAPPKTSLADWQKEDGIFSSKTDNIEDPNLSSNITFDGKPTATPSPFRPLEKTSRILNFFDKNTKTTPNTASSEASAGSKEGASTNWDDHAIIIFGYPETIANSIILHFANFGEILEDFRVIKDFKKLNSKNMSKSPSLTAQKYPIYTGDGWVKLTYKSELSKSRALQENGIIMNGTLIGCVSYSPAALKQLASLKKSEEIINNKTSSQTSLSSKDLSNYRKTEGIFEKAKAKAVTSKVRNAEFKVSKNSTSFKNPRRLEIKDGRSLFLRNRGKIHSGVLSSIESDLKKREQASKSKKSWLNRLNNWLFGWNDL

Nup116 (S. cerevisiae) = Nup116 (S. cerevisiae) (UniProt Q02630); assay: as above
Nup170 (S. cerevisiae) [3] = biological target: Nup170 (S. cerevisiae) (UniProt P38181); assay: condition: only to the nascent chain (co-translational engagement); binding of the finished proteins not tested; selective ribosome profiling (SeRP); RNase I monosomes pelleted through sucrose, Twin-StrepII bait pulled down on Streptactin sepharose, ribosome footprints of the IP against the total translatome; cycloheximide
Nup170 (S. cerevisiae) [4] = biological target: Nup170 (S. cerevisiae) (UniProt P38181); assay: condition: only to the nascent chain (co-translational engagement); binding of the finished proteins not tested; RIP-qPCR (affinity purification of the bait, qPCR of the co-enriched mRNA of the nascent partner); Twin-StrepII bait from yeast lysate on Streptactin resin, 4 °C, lysis in 500 mM KCl, washes in 140 mM KCl; cycloheximide against puromycin; co-translational if mean signal with cycloheximide >=1.5 and significantly lower with puromycin; also Nsp1-StrepII in the Nup57 alpha-beta deletion strain

Molecule: Sec16 (from UniProt P48415 1-2195)
binding (Sec13 (S. cerevisiae)): binds

Molecule: fatty acid synthase subunit Fas1 (from UniProt P07149 1-2051)
binding (Fas2 (S. cerevisiae)): no binding

Molecule: Nup170 (from UniProt P38181 1-1502)
binding (Nup53 (S. cerevisiae)): binds

Molecule: Nup82 (from UniProt P40368 1-713)
binding (Nup116 (S. cerevisiae)): binds

B1: Nup53 (protein, UniProt Q03790 1-475)
chain: MADLQKQENSSRFTNVSVIAPESQGQHEQQKQQEQLEQQKQPTGLLKGLNGFPSAPQPLFMEDPPSTVSGELNDNPAWFNNPRKRAIPNSIIKRSNGQSLSPVRSDSADVPAFSNSNGFNNVTFGSKKDPRILKNVSPNDNNSANNNAHSSDLGTVVFDSNEAPPKTSLADWQKEDGIFSSKTDNIEDPNLSSNITFDGKPTATPSPFRPLEKTSRILNFFDKNTKTTPNTASSEASAGSKEGASTNWDDHAIIIFGYPETIANSIILHFANFGEILEDFRVIKDFKKLNSKNMSKSPSLTAQKYPIYTGDGWVKLTYKSELSKSRALQENGIIMNGTLIGCVSYSPAALKQLASLKKSEEIINNKTSSQTSLSSKDLSNYRKTEGIFEKAKAKAVTSKVRNAEFKVSKNSTSFKNPRRLEIKDGRSLFLRNRGKIHSGVLSSIESDLKKREQASKSKKSWLNRLNNWLFGWNDL
binding (Nup170 (S. cerevisiae) [3]): no binding | binding (Nup170 (S. cerevisiae) [4]): no binding

Continued, values first:

binding [1]: binds | binding [2]: binds
Molecule: Fas2 (from UniProt P19097 1-1887)

binding (Gle2 (S. cerevisiae)): binds
Molecule: Nup116 (from UniProt Q02630 1-1113)
